Screening data, single-dose tests

The values are deposited in ChEMBL (CHEMBL3988442, “University of Dundee, Small-Polar-MMV Screening Library” (2021)).

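Phenotypic screen: M. tuberculosis growth, cholesterol and DPPC medium, 4 days; the read-out is not stated. Compounds at 500 µM. Higher reads as more growth inhibition (inferred: compounds with an IC50 in retests scored well above the rest). About 18,000 compounds were tested under these conditions; 5% (about 900) showed 50% or more at least once.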

Results are given as percent effect. The record does not define 0% and 100%; most values in the screen are far below 50% and negative numbers occur (in some assays of this library far below -100). This is an unselected part of the compounds tested.

* O=C(NCc1ccncc1)NCC1CCN(C2CC2)C1 (configuration not stated) : 32.42%
* Cc1cc(CN(C)C(=O)Cc2ccccc2F)no1 : 18.96%
* CN(C)C(=O)CCCn1nnc(-c2ccsc2)n1 : 76.36%
* O=C(Cc1cscn1)N1CCCC1c1ccco1 (configuration not stated) : -14.42%
* CN1CCC(NC(=O)COc2ccc(C#N)cc2)CC1 : -11.39%
* C=C(C)COc1c(Cl)cc(C(N)=O)cc1OC : 78.29%
* COc1cc(Br)cnc1C#N : -10.09%
* CCC1CN(C(=O)c2c(C)nsc2NC)CCO1 (configuration not stated) : 0.6766%
* CN(C)c1nc(CN)cs1 : -6.693%
* Cn1ncc2c(N)ncnc21 : -0.8071%
* CS(=O)(=O)CC1(CN)CCOCC1 : 1.437%
* Cc1noc(C)c1CNS(=O)(=O)N1CCSCC1 : -0.8501%
* COc1cccc(-c2ccc(CNS(N)(=O)=O)cc2)c1 : 93.15%
* CC(N)(CO)c1ccccc1 (configuration not stated) : -2.308%
* CS(=O)(=O)N1CCC(C(=O)N2CCCC2)CC1 : 7.185%
* CCOC(=O)CSc1n[nH]c(-c2cccnc2)n1 : 17.02%
* CNC(=O)C(C)(C)Oc1cccc(Cl)c1 : 10.44%
* CCOC(=O)CSCN1C(=O)c2ccccc2C1=O : -1.024%
* CCCn1cc(CNC(=O)c2cn(CCN)nn2)cn1 : 13.72%
* Cc1cc(NC(C)C(N)=O)nn1-c1cccc(Cl)c1 (configuration not stated) : 1.784%
* Cc1cc(NC(=O)CN2CCSCC2)n(C)n1 : 2.032%
* COc1cc(OC)cc(N2CCCNCC2)c1 : 60.54%
* CCNC(=O)N1CCN(c2ccncc2Cl)CC1 : 8.085%
* CSCC1CCN(CC(=O)Nc2ccn(C)n2)CC1 : 10.06%
* CCN1CCCC1CNC(=O)C(C)(C)C (configuration not stated) : 1.146%
* CC1(CNC(=O)Nc2ccc(C(N)=O)c(Cl)c2)COC1 : 9.541%
* CCc1cnc(CCN)s1 : 38.91%
* CN(C)c1ccc(CN2CCN(C)C(CO)C2)cn1 (configuration not stated) : 7.8%
* CN(C)S(=O)(=O)NC(c1ccccc1)c1ccccc1 : 56.21%
* Nc1nc(C(=O)N[C@@H]2COCC[C@@H]2OCC2CC2)cs1 : 7.381%
* COc1nc(C)cc(C)c1CO : 7.006%
* CC(C1CC1)N(CCC#N)C(=O)N(C)C (configuration not stated) : 1.167%
* c1cnn(CCCNCCCn2cccn2)c1 : -0.2115%
* CN(C)[C@@H]1CN(C(=O)c2ccco2)C[C@H]1CO : -3.75%
* CCC(O)Cc1ccncc1 (configuration not stated) : -5.122%
* CCO[C@H]1CN(Cc2csc(C(C)=O)c2)C[C@@H]1O : 17.03%
* NCc1ccc2sccc2c1 : 21.72%
* C1CC(OCCN2CCOCC2)CCN1 : -4.327%
* CN(Cc1ccccc1)C(=O)c1cnn(C)c1 : 34.58%
* COCCn1cc(C(C)N)cn1 (configuration not stated) : -1.152%
* CC(C(=O)Nc1ccc(Br)cc1)n1cnnn1 (configuration not stated) : 78.13%
* CCC1CCCN(Cc2nc(C)no2)C1 (configuration not stated) : 20.72%
* Cc1ccnc(NCc2cccc(S(N)(=O)=O)c2)c1 : -57.11%
* Cc1cnccc1CCN : -11.45%
* N#Cc1ccc2nc[nH]c2c1 : -5.985%
* Cc1cc(NC(=O)CCN2CCn3ccnc3C2)no1 : 4.588%
* N[C@H]1CN(S(=O)(=O)N2CCOCC2)C[C@@H]1C1CC1 : 8.159%
* NC1CCCN(c2cc(N3CCOCC3)ncn2)C1 (configuration not stated) : -5.727%

Some entries from above, unchanged:

SMILES,percent effect
COc1nc(C)cc(C)c1CO,7.006%
CCC1CCCN(Cc2nc(C)no2)C1 (configuration not stated),20.72%
CN1CCC(NC(=O)COc2ccc(C#N)cc2)CC1,-11.39%
CC1(CNC(=O)Nc2ccc(C(N)=O)c(Cl)c2)COC1,9.541%
Cn1ncc2c(N)ncnc21,-0.8071%